Laboratory results from patent US20190248900A1.
These are yes or no findings as the source states them, for the method shown. Some binding calls cover weakened binding; strength is not graded here.

Amino acid sequences for entries named in this document (tags omitted). A change or cut given only in a name is not applied to a line headed by its entry. Residues count along the entry.
UniProt Q15116, residues 25-167: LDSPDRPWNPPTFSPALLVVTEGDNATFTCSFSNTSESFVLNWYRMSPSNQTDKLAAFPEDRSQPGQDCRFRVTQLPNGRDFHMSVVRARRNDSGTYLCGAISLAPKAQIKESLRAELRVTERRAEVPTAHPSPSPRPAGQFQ
UniProt Q9WUL5, residues 20-221: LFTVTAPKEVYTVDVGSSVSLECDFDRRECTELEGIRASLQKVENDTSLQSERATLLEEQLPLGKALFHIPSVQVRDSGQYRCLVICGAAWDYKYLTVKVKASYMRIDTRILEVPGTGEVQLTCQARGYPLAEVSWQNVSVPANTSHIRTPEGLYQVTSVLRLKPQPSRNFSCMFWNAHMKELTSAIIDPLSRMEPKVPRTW

Biological target: PD1-his (Catalog Number 10377-H08H, Sino Biological Inc.) (UniProt Q15116)
Assay: ELISA, 1 ug/ml

binding: binds
Substance: mPDL2-mFC (from UniProt Q9WUL5) (Fc fusion)
